Reference: PMC8052345
These are yes or no findings as the source states them, for the method shown. In cells and extracts the contact can be indirect. Binding calls can cover weak binding; strength is not graded here. Tags and fused reporters may be left off the sequences shown.

Molecular target: T1, Flag-tagged dual-specificity phosphatase 16 (DUSP16) (human) (UniProt Q9BY84)
T1 sequence: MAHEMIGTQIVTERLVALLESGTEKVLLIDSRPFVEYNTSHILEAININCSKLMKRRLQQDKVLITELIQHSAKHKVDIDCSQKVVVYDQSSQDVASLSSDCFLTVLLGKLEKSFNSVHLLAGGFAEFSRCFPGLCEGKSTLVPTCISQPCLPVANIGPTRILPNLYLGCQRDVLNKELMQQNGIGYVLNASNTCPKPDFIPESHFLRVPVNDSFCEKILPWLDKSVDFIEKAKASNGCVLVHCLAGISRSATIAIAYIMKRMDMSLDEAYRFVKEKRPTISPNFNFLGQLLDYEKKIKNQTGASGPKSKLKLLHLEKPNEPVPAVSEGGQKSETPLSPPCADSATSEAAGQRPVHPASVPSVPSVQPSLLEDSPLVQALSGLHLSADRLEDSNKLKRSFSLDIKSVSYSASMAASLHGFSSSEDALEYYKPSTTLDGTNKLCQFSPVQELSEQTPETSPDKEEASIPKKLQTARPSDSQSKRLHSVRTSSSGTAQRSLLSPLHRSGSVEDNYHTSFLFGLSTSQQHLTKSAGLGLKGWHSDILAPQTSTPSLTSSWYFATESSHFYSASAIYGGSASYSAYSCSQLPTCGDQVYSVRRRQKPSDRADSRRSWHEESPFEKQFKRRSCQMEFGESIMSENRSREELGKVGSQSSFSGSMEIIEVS
Test: co-IP; Flag-tagged DUSP16 expression plasmid transfected into HEK293 T cells; DUSP16 immunoprecipitated; endogenous JNK, p38 and BAX examined in the precipitate

Substance | binding
c-Jun N-terminal kinase (JNK), endogenous (human (endogenous in HEK293 T)) (enzyme) | binds
p38 kinase, endogenous (human (endogenous in HEK293 T)) (enzyme) | binds
